# In PubChem BioAssay AID1508600 (Functional Genomics Laboratory (NCATS/FGL), 2020):
# The whole screen tested about 53,000 sequences, of which about 3,700 (7%) were called active.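 How the source made its calls: active means gene knockdowns whose robust z-score for IL-1 alpha signal is at least 2 or at most -2, so actives lie on both sides; inactive means the rest.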 Some of the results follow.
# Test: Components of the Cytosolic LPS Sensing Pathway: Gene Identification via Genome-wide siRNA Screen;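 further: robust z of the log signal after scaling to non-targeting control siRNA wells of the plate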
# Settings: RAW264.7 macrophages, IL-1a HTRF, actives lie on both sides, screened at 100 nM (by protocol), cells primed 5 h with Pam3CSK4 first
# Method in brief: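 Cells (RAW264.7, 1×10^4 per well) were transfected with siRNA at 100 nM and cultured 48h at 37 degrees C. Pam3CSK4 was added for 5 hours; LipidA transfection followed for 24 hour. IL-1a was then measured by HTRF.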
row,Sequence,z-score
1,GGAAUUCAUUGAGUCUUGUTT against Kcnip2,inactive: 0.741
2,CGACAGCAAAGUGGUUAAGTT against Upk2,inactive: 0.145
3,GGCUUUCUCCCAGCAAUAGTT against Scrt1,inactive: -1.97
4,GGGAACAAUCAAAAUUGGATT against Mta3,inactive: -0.207
5,GGGAAUACAUUUUAUCUUCTT against Cpox,inactive: -0.16
6,GGCAAUGCUGUCCUACUAUTT against Map2k5,inactive: -1.19
7,CCACUAUGGCGACCAGAUUTT against Mfap2,inactive: 0.0375
8,GCUAUGUGAAUUUGUAUGATT against Parp11,inactive: 0.398
9,GGCUGUUGUCAAUCCAGUUTT against Krtap5-4,inactive: 0.686
10,GGCAGUCACACAGUUUGAATT against Bend6,inactive: 0.129
11,GGUUGUAGGAGAGGUAGAGTT against Sh3kbp1,inactive: 1.17
12,GCUAGGAACGAGGAGCUAATT against Prrt3,inactive: 1.07
13,GGUCGAAGUAUUGGAAAAUTT against Hesx1,inactive: -1.71
14,GCUCUGUUAAGGAAGAACATT against Safb2,active: 2.02
15,CCUACCUCACCGUAACUGUTT against Celsr1,inactive: -1.22
16,GCAAAUCAUUUAGGACCCATT against Amer2,active: -2.54
17,GGGUGCUACAAAAUUUGGATT against Arfgap1,inactive: 1.46
18,CCAUUAUAGAUCGUCAAUATT against Nlrp9c,inactive: -1
19,GGACCUGAGAGUUGUUUUGTT against Faim,inactive: 0.862
20,GGAAGUAAAAGAGGCUUUUTT against Olfr432,inactive: 0.198
21,GGGAGAACAGUGUUCAGAGTT against Bhlha15,inactive: -0.151
22,CCUGGUAUCCAAGAGGAAGTT against Myt1,active: 2.52
23,CCGAAUCUGUCGUCAAGGUTT against Trem3,inactive: 0.552

# Part of the list above, set out differently.
row	Sequence	z-score
9	GGCUGUUGUCAAUCCAGUUTT against Krtap5-4	inactive: 0.686
10	GGCAGUCACACAGUUUGAATT against Bend6	inactive: 0.129
11	GGUUGUAGGAGAGGUAGAGTT against Sh3kbp1	inactive: 1.17
12	GCUAGGAACGAGGAGCUAATT against Prrt3	inactive: 1.07
13	GGUCGAAGUAUUGGAAAAUTT against Hesx1	inactive: -1.71

# Later entries.

row,Sequence,z-score
1,GGAGUUAUUCUGUUCUCUCTT against Efcab5,inactive: 0.119
2,CGGCCAUUUACCAUACGUUTT against Slc15a1,inactive: -1.05
3,GCUCCUUCCCGUUUCUAGATT against Tex47,inactive: -1.79
4,GGACAAAAGGCUGAGCAUCTT against Flt1,inactive: -0.235
5,CCCACCCAGGCAAUAAAAUTT against Fstl3,inactive: 0.105
6,GGGUUAUGGUAGAUUAUCUTT against Tor4a,inactive: -0.376
7,GCGAUUUGGCUUGCCAAGATT against Zfp622,inactive: -0.468
8,GGCUACAUCCCUGAACACUTT against Ndufb5,inactive: 0.231
9,GGUUUCAAGACAUUGAAAGTT against Arl14ep,inactive: -0.424
10,GGCAUCAAGCAAUUCACUCTT against Zfp455,inactive: 1.14
11,GGAAGUCACAGGGAUGUUGTT against Rbm45,inactive: 1.51
12,GCAUUGUCCGAGGUUUAUUTT against Tspan33,inactive: 0.64
13,GGGAAUUUUUGUGGGUGAATT against Bbs2,inactive: -0.541
14,CUUAGACCCAAUUCAAUUCTT against Zfp667,inactive: -0.0845
15,CCUCGGAUAAGGUUAUUGCTT against Smg6,inactive: 0.767
16,GCCUUCUCCCAUGUCUAAATT against Bmp15,inactive: 0.342
17,GGAGCUGAGAUCAAUUCAATT against Ankrd17,inactive: 1.88
18,GGUCAACGUAAAUUGUUCATT against Plppr5,active: 2.94
19,GCAAGAAAAUUGCACGUUGTT against Maco1,inactive: 0.281
20,CCUGGAAUCCCAAGAACAGTT against Thap1,inactive: -0.0945
21,GGGAACCUCUAUGACAAAATT against Nek9,inactive: 0.723
22,GGUCUCUCAUUACCACAUUTT against Olfr69,inactive: 1.75
23,GCGGAAUAUGUAAAAUCUCTT against Ppm1l,inactive: -0.447

row,Sequence,z-score
1,GGCCUUAUCUCCCACAUCATT against Gm4952,inactive: 0.968
2,GGAUCCUAGAAGCAGUUGCTT against Car4,inactive: -0.283
3,GUUCAUGUCUAUCCUGUCUTT against Hba-x,active: -2.45
4,GGCCUAAAAAGCAACAUGUTT against Cuzd1,inactive: 1.88
5,GGAAUUUCUACGGAAACAATT against Myom2,inactive: 1.23
6,GGGCUAUGAGAAGUUGCUATT against Gnptg,inactive: 0.353
7,CCUUCUCAUAGUGAAAGUATT against Zkscan5,inactive: 1.05
8,GGAAGAGGAACAGUUAGCCTT against Zfp553,inactive: -0.24
9,GCCCAUCAGACUUCUACUUTT against Slc22a17,inactive: -0.754
10,GGCCUUUAGCACCUGUGUGTT against Olfr583,inactive: -1.7
11,GGUGCUAUGUGCGUUUGAUTT against 9830107B12Rik,inactive: 1.97
12,GGAUCAAGCCGAACAGUUCTT against Pigk,active: 2.34
13,GCUUAAGGAUCCAUAAUGUTT against Musk,inactive: 0.981
14,CGACAAAAGCCACCUUUCGTT against Tm4sf4,active: -2.62
15,GCCCUAGCUUGUAUGGUUCTT against Rsad1,inactive: 0.59
16,GGCCUGGCUGUGGAAUUCATT against Pvt1,inactive: 0.141
17,GGCCAUUCUACUAACAGUATT against Tmed10,inactive: -1.31
18,CCAUCACUAGUGAUCAUUATT against Gm5115,inactive: -1.7
19,GGAUAGAGCACAGAUCCAGTT against St8sia5,active: 2.38
20,CCUAUAAGAUGUGCUCUAUTT against Carhsp1,inactive: 0.823
21,GCUUAUCGAAUUCUUCUCCTT against Cnpy2,inactive: 0.417
22,CCGCUAUCCUCUAUCUCCATT against Dhx34,inactive: -0.436
23,GGAGAAUCCUGUUUUUUGUTT against Elp4,inactive: 0.43
